Test results from US20200223910A1.
No constants are given. Whether binding was seen depends on the method and setting. Some binding calls cover weakened binding; strength is not graded here. For some of these results: Sequences can lack the tags named with a protein.

T1: mouse TNC rCd4-His-FBG (rat; mouse) (UniProt P05540+Q80YX1)
T1 sequence (chain (part 1 of 2), looked up): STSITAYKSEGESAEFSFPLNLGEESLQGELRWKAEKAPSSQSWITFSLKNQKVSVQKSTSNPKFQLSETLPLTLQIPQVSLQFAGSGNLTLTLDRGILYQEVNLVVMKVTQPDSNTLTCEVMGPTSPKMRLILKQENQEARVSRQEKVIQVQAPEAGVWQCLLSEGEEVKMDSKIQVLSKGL
T1 sequence (chain (part 2 of 2), looked up): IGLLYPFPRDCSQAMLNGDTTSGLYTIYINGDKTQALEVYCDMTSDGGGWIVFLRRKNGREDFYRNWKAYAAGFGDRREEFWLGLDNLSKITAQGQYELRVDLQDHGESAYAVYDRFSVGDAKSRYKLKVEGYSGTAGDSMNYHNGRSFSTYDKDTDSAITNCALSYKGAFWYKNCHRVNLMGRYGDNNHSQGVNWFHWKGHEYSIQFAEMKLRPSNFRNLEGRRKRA

T2: human TNC rCd4-His-FBG (rat; human) (UniProt P05540+P24821)
T2 sequence (chain (part 1 of 2), looked up): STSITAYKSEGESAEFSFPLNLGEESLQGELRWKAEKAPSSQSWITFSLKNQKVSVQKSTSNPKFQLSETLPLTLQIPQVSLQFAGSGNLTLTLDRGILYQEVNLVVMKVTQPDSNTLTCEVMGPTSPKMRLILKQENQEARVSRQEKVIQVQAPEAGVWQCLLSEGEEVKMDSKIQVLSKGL
T2 sequence (chain (part 2 of 2), looked up): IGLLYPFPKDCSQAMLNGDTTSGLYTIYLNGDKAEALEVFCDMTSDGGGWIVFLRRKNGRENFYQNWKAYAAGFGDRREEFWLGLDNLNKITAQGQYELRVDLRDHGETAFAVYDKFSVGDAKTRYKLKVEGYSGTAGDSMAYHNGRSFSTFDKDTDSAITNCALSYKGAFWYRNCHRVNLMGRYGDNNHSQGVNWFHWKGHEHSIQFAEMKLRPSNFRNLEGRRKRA

T3: human TNR rCd4-His-FBG (rat; human) (UniProt P05540+Q92752)
T3 sequence (chain (part 1 of 2), looked up): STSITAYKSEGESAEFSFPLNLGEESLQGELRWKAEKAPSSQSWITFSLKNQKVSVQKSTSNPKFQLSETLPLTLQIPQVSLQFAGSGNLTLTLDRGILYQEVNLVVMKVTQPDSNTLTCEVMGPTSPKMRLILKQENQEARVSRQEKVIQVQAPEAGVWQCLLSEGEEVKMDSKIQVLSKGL
T3 sequence (chain (part 2 of 2), looked up): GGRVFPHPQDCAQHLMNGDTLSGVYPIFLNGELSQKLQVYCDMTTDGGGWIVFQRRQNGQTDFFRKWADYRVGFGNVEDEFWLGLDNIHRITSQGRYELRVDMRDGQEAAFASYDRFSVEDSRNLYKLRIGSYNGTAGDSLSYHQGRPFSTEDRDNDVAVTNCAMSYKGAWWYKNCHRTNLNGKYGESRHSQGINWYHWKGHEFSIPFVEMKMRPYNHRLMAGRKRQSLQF


How the values were obtained:
[1] = target: human His-FBG citrullinated with PAD2 (human) (UniProt P24821); experiment: SPR BIAcore 3000, 25 C, IgG4 captured on anti-human IgG
[2] = target: human His-FBG citrullinated with PAD4 (human) (UniProt P24821); experiment: as above
[3] = target: T1, mouse TNC rCd4-His-FBG (rat; mouse); experiment: SPR BIAcore T100, 25 C
[4] = target: T2, human TNC rCd4-His-FBG (rat; human); experiment: HTRF screen of scFv supernatants
[5] = target: T1, mouse TNC rCd4-His-FBG (rat; mouse); experiment: capture ELISA screen of scFv supernatants
[6] = target: T1, mouse TNC rCd4-His-FBG (rat; mouse); experiment: SPR, 37 C, purified IgG4 captured on anti-human Fc
[7] = target: endogenous human tenascin-C in RA synovium (human) (UniProt P24821); experiment: immunohistochemistry on acetone/methanol-fixed cryosections of human RA synovium
[8] = target: T2, human TNC rCd4-His-FBG (rat; human); experiment: SPR BIAcore T200, 37 C
[9] = target: T3, human TNR rCd4-His-FBG (rat; human); experiment: SPR BIAcore T200, 37 C
[10] = target: T1, mouse TNC rCd4-His-FBG (rat; mouse); experiment: SPR BIAcore T200, 37 C

Binder	binding [4]	binding [5]	other results
B12 human IgG4 (S241P) (antibody, V domains shown) VH: QVQLVESGGGLVQPGRSLRLSCAASGFTFDDYAMHWVRQAPGKGLEWVSGISGSGGSTYYADSVKGRFTISRDNAKNSLYLQMNSLRAEDTALYYCAKDISAVPDTFDIWGQGTMVTVSS VL: DIQMTQSPASLPTPVGDRVTITCRASQYIQGFLNWYQQKPGKAPKLLIYDASNLETGVPSRFSGSGSGTDFTLTISSLQPEDFATYYCQQSYSTPQTFGQGTKVDIKR			binding [1]: binds; binding [2]: binds
B12 Fab (Fab, V domains shown) VH: QVQLVESGGGLVQPGRSLRLSCAASGFTFDDYAMHWVRQAPGKGLEWVSGISGSGGSTYYADSVKGRFTISRDNAKNSLYLQMNSLRAEDTALYYCAKDISAVPDTFDIWGQGTMVTVSS VL: DIQMTQSPASLPTPVGDRVTITCRASQYIQGFLNWYQQKPGKAPKLLIYDASNLETGVPSRFSGSGSGTDFTLTISSLQPEDFATYYCQQSYSTPQTFGQGTKVDIKR			binding [3]: binds
165_13_A4 scFv (scFv, V domains shown) VH: QVQLVESGGGLVQPGRSLRLSCAASGFTFDDYAMHWVRQAPGKGLEWVSGISGSGGSTYYADSVKGRFTISRDNAKNSLYLQMNSLRAEDTALYYCAKDKYPVLDTFDIWGQGTMVTVSS VL: DIQMTQSPASLPTPVGDRVTITCRASQYIQGFLNWYQQKPGKAPKLLIYDASNLETGVPSRFSGSGSGTDFTLTISSLQPEDFATYYCQQSYSTPQTFGQGTKVDIKR	binds	binds	
165_13_B1 human IgG4 (S241P) (antibody, V domains shown) VH: QVQLVESGGGLVQPGRSLRLSCAASGFTFDDYAMHWVRQAPGKGLEWVSGISGSGGSTYYADSVKGRFTISRDNAKNSLYLQMNSLRAEDTALYYCAKVMSSMEDAFDIWGQGTMVTVSS VL: DIQMTQSPASLPTPVGDRVTITCRASQYIQGFLNWYQQKPGKAPKLLIYDASNLETGVPSRFSGSGSGTDFTLTISSLQPEDFATYYCQQSYSTPQTFGQGTKVDIKR			binding [6]: binds
165_13_D1 human IgG4 (S241P) (antibody, V domains shown) VH: QVQLVESGGGLVQPGRSLRLSCAASGFTFDDYAMHWVRQAPGKGLEWVSGISGSGGSTYYADSVKGRFTISRDNAKNSLYLQMNSLRAEDTALYYCAKGTRGEGDTFDIWGQGTMVTVSS VL: DIQMTQSPASLPTPVGDRVTITCRASQYIQGFLNWYQQKPGKAPKLLIYDASNLETGVPSRFSGSGSGTDFTLTISSLQPEDFATYYCQQSYSTPQTFGQGTKVDIKR			binding [6]: binds
165_13_B1 scFv (scFv, V domains shown) VH: QVQLVESGGGLVQPGRSLRLSCAASGFTFDDYAMHWVRQAPGKGLEWVSGISGSGGSTYYADSVKGRFTISRDNAKNSLYLQMNSLRAEDTALYYCAKVMSSMEDAFDIWGQGTMVTVSS VL: DIQMTQSPASLPTPVGDRVTITCRASQYIQGFLNWYQQKPGKAPKLLIYDASNLETGVPSRFSGSGSGTDFTLTISSLQPEDFATYYCQQSYSTPQTFGQGTKVDIKR	binds	binds	
B12 mouse IgG2a (antibody, V domains shown) VH: QVQLVESGGGLVQPGRSLRLSCAASGFTFDDYAMHWVRQAPGKGLEWVSGISGSGGSTYYADSVKGRFTISRDNAKNSLYLQMNSLRAEDTALYYCAKDISAVPDTFDIWGQGTMVTVSS VL: DIQMTQSPASLPTPVGDRVTITCRASQYIQGFLNWYQQKPGKAPKLLIYDASNLETGVPSRFSGSGSGTDFTLTISSLQPEDFATYYCQQSYSTPQTFGQGTKVDIKR			binding [7]: binds
165_13_B3 scFv (scFv, V domains shown) VH: QVQLVESGGGLVQPGRSLRLSCAASGFTFDDYAMHWVRQAPGKGLEWVSGISGSGGSTYYADSVKGRFTISRDNAKNSLYLQMNSLRAEDTALYYCAKALARGHDTFDIWGQGTMVTVSS VL: DIQMTQSPASLPTPVGDRVTITCRASQYIQGFLNWYQQKPGKAPKLLIYDASNLETGVPSRFSGSGSGTDFTLTISSLQPEDFATYYCQQSYSTPQTFGQGTKVDIKR	binds	binds	
IgG4 165_13_C3* (antibody, V domains shown) VH: QVQLVESGGGLVQPGRSLRLSCAASGFTFDDYAMHWVRQAPGKGLEWVSGISGSGGSTYYADSVKGRFTISRDNAKNSLYLQMNSLRAEDTALYYCAKSYQSDEDAFDIWGQGTMVTVSS VL: DIQMTQSPSSLSASVGDRVTITCRASQYIQGFLNWYQQKPGKAPKLLIYDASNLETGVPSRFSGSGSGTDFTLTISSLQPEDFATYYCQQSYSTPQTFGQGTKVDIKR			binding [8]: binds; binding [9]: binds; binding [10]: binds

More lines, main results first:

binding [4]	binding [5]	Binder	other results
binds	binds	165_13_B6 scFv (scFv, V domains shown) VH: QVQLVESGGGLVQPGRSLRLSCAASGFTFDDYAMHWVRQAPGKGLEWVSGISGSGGSTYYADSVKGRFTISRDNAKNSLYLQMNSLRAEDTALYYCAKGQKGEGDTFDIWGQGTMVTVSS VL: DIQMTQSPASLPTPVGDRVTITCRASQYIQGFLNWYQQKPGKAPKLLIYDASNLETGVPSRFSGSGSGTDFTLTISSLQPEDFATYYCQQSYSTPQTFGQGTKVDIKR	
binds	binds	180_11_F5 scFv (scFv, V domains shown) VH: QVQLVESGGGLVQPGRSLRLSCAASGFTFDDYAMHWVRQAPGKGLEWVSGISGSGGSTYYADSVKGRFTISRDNAKNSLYLQMNSLRAEDTALYYCAKVMRTGLDTFDIWGQGTMVTVSS VL: DIQMTQSPASLPTPVGDRVTITCRASQYIQGFLNWYQQKPGKAPKLLIYDASNLETGVPSRFSGSGSGTDFTLTISSLQPEDFATYYCQQSYSTPQTFGQGTKVDIKR	
binds	binds	165_13_D1 scFv (scFv, V domains shown) VH: QVQLVESGGGLVQPGRSLRLSCAASGFTFDDYAMHWVRQAPGKGLEWVSGISGSGGSTYYADSVKGRFTISRDNAKNSLYLQMNSLRAEDTALYYCAKGTRGEGDTFDIWGQGTMVTVSS VL: DIQMTQSPASLPTPVGDRVTITCRASQYIQGFLNWYQQKPGKAPKLLIYDASNLETGVPSRFSGSGSGTDFTLTISSLQPEDFATYYCQQSYSTPQTFGQGTKVDIKR	
binds	binds	165_13_D4 scFv (scFv, V domains shown) VH: QVQLVESGGGLVQPGRSLRLSCAASGFTFDDYAMHWVRQAPGKGLEWVSGISGSGGSTYYADSVKGRFTISRDNAKNSLYLQMNSLRAEDTALYYCAKGTVGEGDTFDIWGQGTMVTVSS VL: DIQMTQSPASLPTPVGDRVTITCRASQYIQGFLNWYQQKPGKAPKLLIYDASNLETGVPSRFSGSGSGTDFTLTISSLQPEDFATYYCQQSYSTPQTFGQGTKVDIKR	
binds	binds	165_13_C3 scFv (scFv, V domains shown) VH: QVQLVESGGGLVQPGRSLRLSCAASGFTFDDYAMHWVRQAPGKGLEWVSGISGSGGSTYYADSVKGRFTISRDNAKNSLYLQMNSLRAEDTALYYCAKSYQSDEDAFDIWGQGTMVTVSS VL: DIQMTQSPASLPTPVGDRVTITCRASQYIQGFLNWYQQKPGKAPKLLIYDASNLETGVPSRFSGSGSGTDFTLTISSLQPEDFATYYCQQSYSTPQTFGQGTKVDIKR	
